Measured values from PMC9492735.

Biological target: T1, VIVIPAROUS1/ABI3-LIKE (VAL1), HA-tagged (VAL1-HA) (Arabidopsis thaliana) (UniProt Q8W4L5)
T1 sequence: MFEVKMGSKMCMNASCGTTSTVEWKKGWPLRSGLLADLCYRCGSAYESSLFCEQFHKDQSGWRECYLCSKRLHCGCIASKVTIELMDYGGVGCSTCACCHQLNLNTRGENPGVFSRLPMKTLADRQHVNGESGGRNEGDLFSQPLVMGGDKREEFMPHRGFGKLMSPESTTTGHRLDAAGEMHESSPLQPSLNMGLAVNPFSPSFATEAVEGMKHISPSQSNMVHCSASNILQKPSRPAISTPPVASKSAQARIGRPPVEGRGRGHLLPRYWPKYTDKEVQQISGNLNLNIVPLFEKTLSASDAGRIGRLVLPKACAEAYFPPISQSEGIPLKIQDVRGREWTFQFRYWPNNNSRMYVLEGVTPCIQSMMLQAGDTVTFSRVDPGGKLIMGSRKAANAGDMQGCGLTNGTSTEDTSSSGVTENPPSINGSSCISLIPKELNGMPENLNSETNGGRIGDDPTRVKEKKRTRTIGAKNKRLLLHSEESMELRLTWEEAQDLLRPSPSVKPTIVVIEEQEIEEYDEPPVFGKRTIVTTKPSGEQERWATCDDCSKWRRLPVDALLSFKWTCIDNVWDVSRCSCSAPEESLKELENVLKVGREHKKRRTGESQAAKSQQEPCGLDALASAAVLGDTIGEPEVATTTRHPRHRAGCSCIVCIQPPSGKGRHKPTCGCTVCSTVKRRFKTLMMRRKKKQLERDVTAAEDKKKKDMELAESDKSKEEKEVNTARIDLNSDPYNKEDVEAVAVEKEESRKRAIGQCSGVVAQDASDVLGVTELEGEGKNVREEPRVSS
Test: affinity purification with mass spectrometry; VAL1-HA as bait; crosslinked Arabidopsis seedlings (non-vernalized, 4 weeks cold, 4 weeks cold plus 7 days warm); Protein A beads coupled with HA antibody; in-gel digestion, nanoLC-MS/MS; compared with Col-HA negative controls

binding: binds
B1: RING1A (protein, UniProt Q9FKW0 1-522)
chain: MSVKNNSFSSAEIPDVADQPRDRFNPEATQDLQEKDETKEEKEGDEEVKHDEAEEDQEVVKPNDAEEDDDGDDAEEDEEEEVEAEEDEEAEEEEEEEEEEEEEEEDSKERSPSSISGDQSEFMEIDLGEIRKDVQCPICLGIIKKTRTVMECLHRFCRECIDKSMRLGNNECPACRKHCASRRSLRDDPKFDALIAALFTNIDSYEEEELAFHEDEMARNKQIQASIAQISQRQSEALVKRRSLGKEAAVLMRSPRIASGSRRRRNSRNMEQQNASEAHEDDDNDDNNNRGRDKDSSSDERGTEVRQKKRRKRSTSRSTQHPSSSGANKNNGNCADNDTEVYRDTKGISPGLVWNPEILAWGRGGTRSNTRHGNNTSGGSSKSVRNARVNKLVEYLRSSVDGSSVELDIHVKLVSLDTKCIPDLPQPYLCCRPTLLVKQLREFVALQIHLKTEEVELLVTRRRVGEDAAIENLPAVTPASAAASKDEMLSLEDNETLSRLKIDFISSHEQHLIIAYRKKQTE

binding: binds
B2: BMI1A (protein, UniProt Q94AY3 1-420)
chain: MEGDMVAKVKRETVVACMTCPLCDKLLRDATTISECLHTFCRKCIYEKITEDEIESCPVCDIDLGGTPLEKLRPDHILQDLRAKLFPLKRKKERAPEVVSSISLPAKRKERSISSLVVSTPRVSAQAGTTGKRTKAATRKDVRGSGSFTKRTVKKEEEFGDDHVESASSPETLKKFTQNKRQSSYANPNQSLSNRRNKDVDEPWDSKLHLWKPLNFLVDVANGTKDPKSELGNASHNDVQGSKTKTKDHKRKCKLEEEISNNGDPTTSETATLKRTRRTRRKRSSTFGDSRIPLLPGAASLKQERRNGHVWFSLVASSNQEGEASLPQIPANYLRIRDGNIPVSFIQKYLMRKLDLKSEDEVEITCMGEPVIPTLQLHSLVDLWLETTSKHQRVAASIGSSAKEFVMVLVYSRKLPECNN

binding: binds
B3: BMI1B (protein, UniProt Q9M9Y4 1-421)
chain: MMIKVKKETMRACLSCSICDNILRDATTISECLHTFCRKCIYEKITEDEIETCPVCNIDLGSTPLEKLRPDHNLQDLRAKIFALKRRKVKAPGIVSLPGKRKERSISSLVVSTPMVSAQAGTTRRRTKAPTRKELRNGSLAERTVKKEESSGDELLESTSSPDTLNKFTQNKRQSKKSCKESISNKENKDGDEPWDSKMDWKPLNFLVEVANGTKPLKSSASQGSGSKSEHANVSRNQFQGSKTKTKNKKRKCKREDDKSNNGDPTTSETVTPKRMRTTQRKRSATTLGDSRNLPQPDESSAKQERRNGPVWFSLVASNDQEGGTSLPQIPANFLRIRDGNTTVSFIQKYLMRKLDLESENEIEIKCMGEAVIPTLTLYNLVDLWLQKSSNHQRFAALVGSSAKDFTMVLVYARKLPECNM

No constants are given. Whether binding was seen depends on the method and setting. Binding seen in cells or lysates may run through a third protein. Here binding means that the protein was enriched with, or labelled near, the bait; the list need not be complete. Where a sequence is shown, tags or fusion partners need not be part of it. Each block holds one binder with its values, some of them ahead of it.
